Laboratory results: article PMC5849316
These are yes or no findings as the source states them, for the method shown. Binding seen in cells or lysates may run through a third protein.

Protein sequences, listed by entry. Tags and fused reporters are not part of them.
UniProt Q9HB71: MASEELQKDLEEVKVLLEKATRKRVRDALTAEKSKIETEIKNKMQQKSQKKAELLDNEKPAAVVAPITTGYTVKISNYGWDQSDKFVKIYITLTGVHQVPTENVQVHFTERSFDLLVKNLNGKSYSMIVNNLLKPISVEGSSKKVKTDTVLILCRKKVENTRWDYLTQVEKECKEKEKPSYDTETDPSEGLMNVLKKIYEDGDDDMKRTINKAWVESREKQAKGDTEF
UniProt P23297: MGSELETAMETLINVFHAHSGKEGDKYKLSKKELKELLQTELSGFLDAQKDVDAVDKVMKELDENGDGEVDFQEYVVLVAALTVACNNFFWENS

Target: Calcyclin Binding Protein/(Siah-1 interacting protein) (CacyBP/SIP) (human (endogenous in SW480)) (UniProt Q9HB71)
Test: co-IP; endogenous CacyBP/SIP precipitated with anti-CacyBP/SIP antibody and protein A+G agarose overnight at 4°C from extracts of SW480 cells treated with 5 μmol/L ionomycin for 30 min; western blot for S100A1 and S100A6; normal mouse IgG as control

With S100A1 (from UniProt P23297 1-94) the binding was “no binding”.
